Consider one molecule from publication PMC7948815.

The target in this assay is human MettL5 with a C-terminal His6 tag (human). In words: co-purification (Ni-NTA, ion exchange, SEC); MettL5-His6 and untagged Trm112 co-expressed in E. coli; Ni-NTA eluted with 250 mM imidazole, HiTrap Q-HP eluted at 300 mM NaCl, Superdex 200 at 150 mM NaCl; 4 °C; SDS-PAGE with Coomassie blue staining.

These are yes or no findings as the source states them, for the method shown. Binding seen in cells or lysates may run through a third protein. A result given as binding can be weak or reduced; the word gives no strength. Tags and fused reporters may be left off the sequences shown.

B1: human Trm112, without any fused tag (protein, UniProt Q9UI30-1 1-125)
chain: MKLLTHNLLSSHVRGVGSRGFPLRLQATEVRICPVEFNPNFVARMIPKVEWSAFLEAADNLRLIQVPKGPVEGYEENEEFLRTMHHLLLEVEVIEGTLQCPESGRMFPISRGIPNMLLSEEETES
On to B1, for which the binding entry was “binds”.
